Results reported in the supplement of paper PMC9233669.
Variants at the floor of the assay are shown more often than the library holds them.

Legend:
biotinyl-Met-oxazolone = experiment: self-aminoacylation, catalytic enhancement (BMO) (fold over background); higher = more active; k-Seq, kA / k0A0; sequences stand for … in GGGAAUGGAUCCACAUCUACGAAUUC…UUCACUGCAGACUUGACGAAGCUG
In short: (§1)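 Catalytic enhancement equals the median kA over the uncatalyzed rate, the latter read from the low-activity peak of a bimodal Gaussian fit. Values of kA came from fitting each sequence's fraction reacted to a pseudo-first-order model, with 1000 bootstraps. Reacted RNA was captured with streptavidin and quantified by triplicate qPCR and Illumina sequencing after 90 minutes at room temperature with 2–1250 μM biotinyl-aminoacyl-oxazolone and 0.43 μM mutagenized RNA pools bearing a 21-nt variable region.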

biotinyl-Val-oxazolone = experiment: self-aminoacylation, catalytic enhancement (BVO) (fold over background); higher = more active; k-Seq, kA / k0A0; sequences stand for … in GGGAAUGGAUCCACAUCUACGAAUUC…UUCACUGCAGACUUGACGAAGCUG
In short: as §1

biotinyl-Leu-oxazolone = experiment: self-aminoacylation, catalytic enhancement (BLO) (fold over background); higher = more active; k-Seq, kA / k0A0; sequences stand for … in GGGAAUGGAUCCACAUCUACGAAUUC…UUCACUGCAGACUUGACGAAGCUG
In short: as §1

biotinyl-Ile-oxazolone = experiment: self-aminoacylation, catalytic enhancement (BIO) (fold over background); higher = more active; k-Seq, kA / k0A0; sequences stand for … in GGGAAUGGAUCCACAUCUACGAAUUC…UUCACUGCAGACUUGACGAAGCUG
In short: as §1

Sequence | self-aminoacylation (biotinyl-Met-oxazolone) | self-aminoacylation (biotinyl-Val-oxazolone) | self-aminoacylation (biotinyl-Leu-oxazolone) | self-aminoacylation (biotinyl-Ile-oxazolone)
AAAUUUGCUAAGAGUCGCAAG [Fam3.1 aminoacylation ribozyme variant] | 1.86 | 1.45 | 1.9 | –
AAGAUUGCUAAUAGUCGUAAG [Fam3.1 aminoacylation ribozyme variant] | 1.15 | 1.03 | 0.993 | 1.11
AAGCUUGCUAAUAGUCGCAAA [Fam3.1 aminoacylation ribozyme variant] | – | 1.76 | 1.65 | 1.84
AAGCUUGCUGAUAGUCGCAAG [Fam3.1 aminoacylation ribozyme variant] | – | – | 1.73 | –
AAGGUUGCUAAUAGUCGCAAU [Fam3.1 aminoacylation ribozyme variant] | 1.81 | 1.46 | 1.68 | 1.99
AAGGUUGCUAAUAGUCGUAAG [Fam3.1 aminoacylation ribozyme variant] | 1.13 | 1.17 | 0.968 | 1.18
AAGUAUGCUAAUAGUCGUAAG [Fam3.1 aminoacylation ribozyme variant] | 1.75 | 1.36 | 1.47 | 1.66
AAGUCGGCUAAUAGUCGCAAG [Fam3.1 aminoacylation ribozyme variant] | 1.66 | 1.61 | 1.73 | 1.44
AAGUCUGCUAACAGUCGCAAG [Fam3.1 aminoacylation ribozyme variant] | – | 1.33 | 1.47 | 1.27
AAGUUAGCUAAUAGGCGCAAG [Fam3.1 aminoacylation ribozyme variant] | 1.38 | 0.983 | 1.13 | 1.14
AAGUUCGCGAAUAGUCGCAAG [Fam3.1 aminoacylation ribozyme variant] | – | 1.35 | 1.55 | 1.77
AAGUUCGCUAAUAGUCGCAUG [Fam3.1 aminoacylation ribozyme variant] | 2.27 | 2.37 | 2.88 | 2.16
AAGUUCUCUAAUAGUCGCAAG [Fam3.1 aminoacylation ribozyme variant] | 1.51 | 1.38 | 1.63 | 1.37
AAGUUUGCCAAUUGUCGCAAG [Fam3.1 aminoacylation ribozyme variant] | 1.47 | 1.14 | 1.15 | 1.28
AAGUUUGCUAAUAGUCUCAAG [Fam3.1 aminoacylation ribozyme variant] | 1.2 | 1.15 | 0.984 | 1.21
AAGUUUGCUACUAGUCGCCAG [Fam3.1 aminoacylation ribozyme variant] | 1.26 | 1.1 | 0.749 | 1.27
AAGUUUGCUAUUAGACGCAAG [Fam3.1 aminoacylation ribozyme variant] | 0.712 | 0.894 | 0.691 | 0.577
AAGUUUUCUAAGAGUCGCAAG [Fam3.1 aminoacylation ribozyme variant] | 1.32 | 1.62 | 1.62 | 1.65
ACACACUUCAGGCAAUCGGUC [Fam1B.1 aminoacylation ribozyme variant] | 1.38 | 1.44 | 1.42 | 1.56
ACGCUUGCUAAUAGUCGCAAG [Fam3.1 aminoacylation ribozyme variant] | – | 1.68 | 1.83 | –
AGGCUUGCUAAUAGUCGCAAG [Fam3.1 aminoacylation ribozyme variant] | 2.14 | 1.96 | 2.31 | 2.17

Sequence | self-aminoacylation (biotinyl-Met-oxazolone) | self-aminoacylation (biotinyl-Val-oxazolone) | self-aminoacylation (biotinyl-Leu-oxazolone) | self-aminoacylation (biotinyl-Ile-oxazolone)
AGUCAACUAGGUCAUCGGGUG [Fam2.2 aminoacylation ribozyme variant] | 7.24 | 4.95 | 8.39 | 5.91
AUACAUCAAACAAUCGGUCUG [Fam1A.1 aminoacylation ribozyme variant] | 0.981 | 0.835 | 0.975 | 0.901
AUACUUCAAAAAAUCGGUCUG [Fam1A.1 aminoacylation ribozyme variant] | 0.926 | 0.839 | 1 | 1.01
AUACUUCAAACAAUCGGUAUG [Fam1A.1 aminoacylation ribozyme variant] | 0.732 | 0.744 | 0.732 | 0.925
AUCACCCUGGUCACCGAGUGA [Fam2.1 aminoacylation ribozyme variant] | 17.5 | 5.92 | 15.4 | 6.34
AUCCACCUAGGUCAUUGGGUG [Fam2.2 aminoacylation ribozyme variant] | 3.76 | 3.24 | 3.86 | 3.51
AUUACCAUGGUCAUCUAGUGA [Fam2.1 aminoacylation ribozyme variant] | 11.1 | 5.38 | 11.1 | 5.41
AUUACCCUGCUCAUCGAGUGU [Fam2.1 aminoacylation ribozyme variant] | 1 | 0.78 | 0.916 | 0.991
AUUACCCUGGGCAUCAAGUGA [Fam2.1 aminoacylation ribozyme variant] | 1.76 | 1.37 | 1.73 | 1.16
AUUACCCUGGUCAACGAGUAA [Fam2.1 aminoacylation ribozyme variant] | 1.19 | 1.44 | 1.53 | 1.29
AUUACCCUGGUCAUCGCAUGA [Fam2.1 aminoacylation ribozyme variant] | 3.2 | 1.75 | 3.5 | 2.01
AUUACCCUGGUCUUCGAAUGA [Fam2.1 aminoacylation ribozyme variant] | 0.746 | 0.728 | 0.694 | 0.649
AUUAGCCUGGUCGUCGAGUGA [Fam2.1 aminoacylation ribozyme variant] | 1.41 | 1.17 | 1.49 | 1.06
AUUAUCCUGGUCAUCGAGAGA [Fam2.1 aminoacylation ribozyme variant] | 0.869 | 0.989 | 0.847 | 1.08
AUUCACCCAGGUCAUCUGGUG [Fam2.2 aminoacylation ribozyme variant] | 3.99 | 2.25 | 4.84 | 2.35
AUUCACCUGCGUCAUCGGGUG [Fam2.2 aminoacylation ribozyme variant] | 7.79 | 5.41 | 10.6 | 5.17
AUUCAGCUAGGUCAUCGGGUA [Fam2.2 aminoacylation ribozyme variant] | 3.6 | 3.3 | 3.67 | 3.18
AUUCAGCUAGGUCAUCGGGUC [Fam2.2 aminoacylation ribozyme variant] | 1.87 | 1.94 | 1.92 | 1.89
CCACACAUCAAGCAAUGGGUC [Fam1B.1 aminoacylation ribozyme variant] | 0.97 | 1.08 | 0.806 | 1.08
CCACACCUCAAGCAUUCGGUC [Fam1B.1 aminoacylation ribozyme variant] | 1.98 | – | 1.83 | –
CCACACCUCAAUCAAUCGGUC [Fam1B.1 aminoacylation ribozyme variant] | 0.829 | 1.14 | 0.969 | 1.03

Sequence | self-aminoacylation (biotinyl-Met-oxazolone) | self-aminoacylation (biotinyl-Val-oxazolone) | self-aminoacylation (biotinyl-Leu-oxazolone) | self-aminoacylation (biotinyl-Ile-oxazolone)
CCACACUCCAACCAAUCGGUC [Fam1B.1 aminoacylation ribozyme variant] | 1.04 | 1.07 | 0.85 | 1.2
CCACACUUCAACCAAUCGGUG [Fam1B.1 aminoacylation ribozyme variant] | 3.66 | 2.91 | 6.37 | 3.05
CCACACUUCAAGCAAUCAGUC [Fam1B.1 aminoacylation ribozyme variant] | 0.666 | 0.856 | 0.85 | 0.782
CCACACUUCAAUCAAUCAGUC [Fam1B.1 aminoacylation ribozyme variant] | 0.697 | 0.814 | 0.827 | 0.818
CCACACUUCAAUGAAUCGGUC [Fam1B.1 aminoacylation ribozyme variant] | 0.698 | 0.839 | 1.05 | 0.949
CCACACUUCACGCUAUCGGUC [Fam1B.1 aminoacylation ribozyme variant] | 1.03 | 1.17 | 0.971 | 1.13
CCACACUUCACGGAAUCGGUC [Fam1B.1 aminoacylation ribozyme variant] | 1.14 | 1.39 | 1.65 | 1.16
CCACACUUUAAGCAAUGGGUC [Fam1B.1 aminoacylation ribozyme variant] | 0.686 | 0.613 | 0.618 | 0.696
CCACAGUUCAAACAAUCGGUC [Fam1B.1 aminoacylation ribozyme variant] | 1.36 | 1.53 | 1.83 | 1.56
CCACUUCAAACAAUCGGUAUG [Fam1A.1 aminoacylation ribozyme variant] | 0.823 | 0.871 | 1.14 | 0.877
CCACUUCAAACGAUCGGUCUG [Fam1A.1 aminoacylation ribozyme variant] | 1.11 | 1.27 | 0.869 | 1.12
CCAGACUUCAAGGAAUCGGUC [Fam1B.1 aminoacylation ribozyme variant] | 1.25 | 1.17 | 1.43 | 1.15
CCAUACUUCAAGCAAUCGGUA [Fam1B.1 aminoacylation ribozyme variant] | 1.22 | 1.26 | 1.1 | 1.33
CCAUACUUCAAUCAAUCGGUC [Fam1B.1 aminoacylation ribozyme variant] | 0.959 | 1.05 | 1.31 | 1.13
CCCCAAUUCAAGCAAUCGGUC [Fam1B.1 aminoacylation ribozyme variant] | 1.79 | 1.83 | 1.82 | 1.89
CCCCACUUCAAGCAAUCCGUC [Fam1B.1 aminoacylation ribozyme variant] | 1 | 1.6 | 1.02 | 1.62
CCGCACUUCAAUCAAUCGGUC [Fam1B.1 aminoacylation ribozyme variant] | 1.26 | 1.62 | 2.03 | 1.27
CCUCACUUCAAUCAAUCGGUC [Fam1B.1 aminoacylation ribozyme variant] | 0.943 | 0.969 | 1.49 | 1.13
CUAAUUCAAACAAUCGGGCUG [Fam1A.1 aminoacylation ribozyme variant] | 0.87 | 0.852 | 1.02 | 0.805
CUACACUUCAAGAAAUCGGUC [Fam1B.1 aminoacylation ribozyme variant] | 0.702 | 0.725 | 0.798 | 0.622
